Laboratory results from publication PMC2582960, “A Structural Model of the Staphylococcus aureus ClfA–Fibrinogen Interaction Opens New Avenues for the Design of Anti-Staphylococcal Therapeutics” (PLoS Pathogens, 2008).
These are yes or no findings as the source states them, for the method shown. Some binding calls cover weakened binding; strength is not graded here.

Protein sequences, listed by entry. Tags and fused reporters are not part of them. Lines headed by an entry give the natural chain unless they say otherwise; changes in a name come on top.
UniProt P08514: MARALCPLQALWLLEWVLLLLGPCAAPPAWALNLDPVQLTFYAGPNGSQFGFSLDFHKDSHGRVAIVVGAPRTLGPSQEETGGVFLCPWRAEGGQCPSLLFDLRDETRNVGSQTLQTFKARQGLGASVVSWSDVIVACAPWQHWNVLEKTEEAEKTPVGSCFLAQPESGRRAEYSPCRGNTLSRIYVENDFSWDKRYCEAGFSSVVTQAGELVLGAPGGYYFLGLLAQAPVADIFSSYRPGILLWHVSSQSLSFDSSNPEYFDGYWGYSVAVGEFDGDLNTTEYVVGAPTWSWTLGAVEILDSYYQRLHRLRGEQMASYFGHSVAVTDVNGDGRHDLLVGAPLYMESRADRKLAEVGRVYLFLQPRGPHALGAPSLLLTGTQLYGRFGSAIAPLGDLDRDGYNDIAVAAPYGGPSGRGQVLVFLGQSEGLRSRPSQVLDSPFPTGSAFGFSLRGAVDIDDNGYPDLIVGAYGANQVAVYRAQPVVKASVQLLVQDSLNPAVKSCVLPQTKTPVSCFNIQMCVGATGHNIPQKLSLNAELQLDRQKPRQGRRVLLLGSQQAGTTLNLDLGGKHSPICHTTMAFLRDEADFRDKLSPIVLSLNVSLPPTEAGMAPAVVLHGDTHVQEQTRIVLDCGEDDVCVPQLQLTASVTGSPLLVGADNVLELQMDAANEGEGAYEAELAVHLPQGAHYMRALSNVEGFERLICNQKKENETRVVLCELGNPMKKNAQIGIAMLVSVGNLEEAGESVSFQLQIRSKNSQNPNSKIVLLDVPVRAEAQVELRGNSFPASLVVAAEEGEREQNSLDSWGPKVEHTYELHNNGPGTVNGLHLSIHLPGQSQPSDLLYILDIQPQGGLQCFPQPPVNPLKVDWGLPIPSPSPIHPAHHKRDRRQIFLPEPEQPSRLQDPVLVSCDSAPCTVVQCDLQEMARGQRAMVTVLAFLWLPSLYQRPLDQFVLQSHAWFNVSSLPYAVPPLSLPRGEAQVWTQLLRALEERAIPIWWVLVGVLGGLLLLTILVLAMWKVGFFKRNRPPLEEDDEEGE

Target: platelet integrin αIIbβ3 (UniProt P08514)
Assay: ELISA; inhibition: αIIbβ3 coated (0.25 µg/well); 10 nM full length Fg added with various concentrations of peptide, RT, 1 h, in TBST with 1% BSA, 2 mM MgCl2, 1 mM CaCl2 and MnCl2; bound Fg detected with anti human Fg antibody; both purified

Fg γ^1–17 peptide, wild type (Fg γ-chain 395–411) (from UniProt P02679-2 421-437)
binding: binds
